Laboratory results: PubChem BioAssay AID1508597 (Cure First, 2020)
Purpose: 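Knock-downs altering ovarian cancer cell survival with or without PARP inhibitor rucaparib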 (primary screen). Cells: human ovarian carcinoma lines grown from tumours: OCI-P5x (papillary serous) and OCI-C5x (clear cell). Knock-down reagent: siRNA pool against human genes, 1.25 pmol siRNA per well. Duration: 72 h or 96 h, depending on the cell culture. Challenge: rucaparib 20 µM (about IC30) or vehicle, present until read-out. Measurement: 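ATP luminescence measured at 72 or 96 h according to the culture, then normalised and expressed as percent viability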. Direction: viability, normalised: higher = more viable cells remaining. Hit rule: 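a well counts as a hit if its normalised viability is under 80 percent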. Calls: active = viability under 80%; inactive = viability 80% or more.
Here is a random part of about 2,100 reagents. 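Calls flag viability under 80% in either arm, not effects specific to rucaparib; the reference for percent is not stated.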 The record does not give: the 100% reference.

For MAPK11 (mitogen-activated protein kinase 11), rucaparib or vehicle Rucaparib, cell line OCI-C5x (clear cell), technical replicate 1, the entry reads viability, normalised (%) = 58.9; active. With MAPK11 (mitogen-activated protein kinase 11), rucaparib or vehicle Rucaparib, cell line OCI-C5x (clear cell), technical replicate 2 the deposit lists viability, normalised (%) = 61.9; active. With MAPK11 (mitogen-activated protein kinase 11), rucaparib or vehicle Rucaparib, cell line OCI-C5x (clear cell), technical replicate 3 the deposit lists viability, normalised (%) = 45.4; active. MAPK11 (mitogen-activated protein kinase 11), rucaparib or vehicle Rucaparib, cell line OCI-P5x (serous), technical replicate 1 scored viability, normalised (%) = 71; active. MAPK11 (mitogen-activated protein kinase 11), rucaparib or vehicle Rucaparib, cell line OCI-P5x (serous), technical replicate 2 showed viability, normalised (%) = 71.5; active. MAPK11 (mitogen-activated protein kinase 11), rucaparib or vehicle Rucaparib, cell line OCI-P5x (serous), technical replicate 3 gave viability, normalised (%) = 70.5; active.

MAPK11 (mitogen-activated protein kinase 11), rucaparib or vehicle Vehicle, cell line OCI-C5x (clear cell), technical replicate 1 scored viability, normalised (%) = 66.3; active. MAPK11 (mitogen-activated protein kinase 11), rucaparib or vehicle Vehicle, cell line OCI-C5x (clear cell), technical replicate 2 showed viability, normalised (%) = 82.9; inactive. For MAPK11 (mitogen-activated protein kinase 11), rucaparib or vehicle Vehicle, cell line OCI-C5x (clear cell), technical replicate 3, the entry reads viability, normalised (%) = 53.3; active. With MAPK11 (mitogen-activated protein kinase 11), rucaparib or vehicle Vehicle, cell line OCI-P5x (serous), technical replicate 1 the deposit lists viability, normalised (%) = 77.3; active. MAPK11 (mitogen-activated protein kinase 11), rucaparib or vehicle Vehicle, cell line OCI-P5x (serous), technical replicate 2 gave viability, normalised (%) = 83.5; inactive. For MAPK11 (mitogen-activated protein kinase 11), rucaparib or vehicle Vehicle, cell line OCI-P5x (serous), technical replicate 3, the values are viability, normalised (%) = 71.5; active.

With MAT2A (methionine adenosyltransferase 2A), rucaparib or vehicle Rucaparib, cell line OCI-C5x (clear cell), technical replicate 1 the deposit lists viability, normalised (%) = 47.3; active. With MAT2A (methionine adenosyltransferase 2A), rucaparib or vehicle Rucaparib, cell line OCI-C5x (clear cell), technical replicate 2 the deposit lists viability, normalised (%) = 34.4; active. MAT2A (methionine adenosyltransferase 2A), rucaparib or vehicle Rucaparib, cell line OCI-C5x (clear cell), technical replicate 3 gave viability, normalised (%) = 35.3; active. With MAT2A (methionine adenosyltransferase 2A), rucaparib or vehicle Rucaparib, cell line OCI-P5x (serous), technical replicate 1, the entry reads viability, normalised (%) = 56.4; active. With MAT2A (methionine adenosyltransferase 2A), rucaparib or vehicle Rucaparib, cell line OCI-P5x (serous), technical replicate 2, the entry reads viability, normalised (%) = 64.2; active. MAT2A (methionine adenosyltransferase 2A), rucaparib or vehicle Rucaparib, cell line OCI-P5x (serous), technical replicate 3 showed viability, normalised (%) = 66.8; active.

For MAT2A (methionine adenosyltransferase 2A), rucaparib or vehicle Vehicle, cell line OCI-C5x (clear cell), technical replicate 1, the values are viability, normalised (%) = 43.5; active. For MAT2A (methionine adenosyltransferase 2A), rucaparib or vehicle Vehicle, cell line OCI-C5x (clear cell), technical replicate 2, the entry reads viability, normalised (%) = 45.1; active. For MAT2A (methionine adenosyltransferase 2A), rucaparib or vehicle Vehicle, cell line OCI-C5x (clear cell), technical replicate 3, the entry reads viability, normalised (%) = 40.5; active. MAT2A (methionine adenosyltransferase 2A), rucaparib or vehicle Vehicle, cell line OCI-P5x (serous), technical replicate 1 showed viability, normalised (%) = 57; active. For MAT2A (methionine adenosyltransferase 2A), rucaparib or vehicle Vehicle, cell line OCI-P5x (serous), technical replicate 2, the values are viability, normalised (%) = 61; active. MAT2A (methionine adenosyltransferase 2A), rucaparib or vehicle Vehicle, cell line OCI-P5x (serous), technical replicate 3 gave viability, normalised (%) = 68.9; active.

PAK2 (p21 (RAC1) activated kinase 2), rucaparib or vehicle Rucaparib, cell line OCI-C5x (clear cell), technical replicate 1 gave viability, normalised (%) = 47.7; active. PAK2 (p21 (RAC1) activated kinase 2), rucaparib or vehicle Rucaparib, cell line OCI-C5x (clear cell), technical replicate 2 scored viability, normalised (%) = 48.6; active. With PAK2 (p21 (RAC1) activated kinase 2), rucaparib or vehicle Rucaparib, cell line OCI-C5x (clear cell), technical replicate 3, the entry reads viability, normalised (%) = 45.8; active. With PAK2 (p21 (RAC1) activated kinase 2), rucaparib or vehicle Rucaparib, cell line OCI-P5x (serous), technical replicate 1, the values are viability, normalised (%) = 80; active. For PAK2 (p21 (RAC1) activated kinase 2), rucaparib or vehicle Rucaparib, cell line OCI-P5x (serous), technical replicate 2, the entry reads viability, normalised (%) = 69.6; active. With PAK2 (p21 (RAC1) activated kinase 2), rucaparib or vehicle Rucaparib, cell line OCI-P5x (serous), technical replicate 3, the values are viability, normalised (%) = 66.8; active.

With PAK2 (p21 (RAC1) activated kinase 2), rucaparib or vehicle Vehicle, cell line OCI-C5x (clear cell), technical replicate 1, the values are viability, normalised (%) = 130; inactive. PAK2 (p21 (RAC1) activated kinase 2), rucaparib or vehicle Vehicle, cell line OCI-C5x (clear cell), technical replicate 2 showed viability, normalised (%) = 77.2; active. With PAK2 (p21 (RAC1) activated kinase 2), rucaparib or vehicle Vehicle, cell line OCI-C5x (clear cell), technical replicate 3, the entry reads viability, normalised (%) = 70.6; active. For PAK2 (p21 (RAC1) activated kinase 2), rucaparib or vehicle Vehicle, cell line OCI-P5x (serous), technical replicate 1, the entry reads viability, normalised (%) = 72.5; active. For PAK2 (p21 (RAC1) activated kinase 2), rucaparib or vehicle Vehicle, cell line OCI-P5x (serous), technical replicate 2, the entry reads viability, normalised (%) = 72.3; active. PAK2 (p21 (RAC1) activated kinase 2), rucaparib or vehicle Vehicle, cell line OCI-P5x (serous), technical replicate 3 gave viability, normalised (%) = 78.1; active.

Looked up above.
Entry of MAPK11 (mitogen-activated protein kinase 11), rucaparib or vehicle Vehicle, cell line OCI-C5x (clear cell), technical replicate 2 under “viability, normalised (%)”: 82.9
MAT2A (methionine adenosyltransferase 2A), rucaparib or vehicle Vehicle, cell line OCI-P5x (serous), technical replicate 3, viability, normalised (%): 68.9
Value of MAT2A (methionine adenosyltransferase 2A), rucaparib or vehicle Vehicle, cell line OCI-P5x (serous), technical replicate 1 under “viability, normalised (%)”: 57
MAPK11 (mitogen-activated protein kinase 11), rucaparib or vehicle Rucaparib, cell line OCI-P5x (serous), technical replicate 2, Outcome → active
MAT2A (methionine adenosyltransferase 2A), rucaparib or vehicle Rucaparib, cell line OCI-C5x (clear cell), technical replicate 1, Outcome = active
